Paper PMC5025801
No constants are given. Whether binding was seen depends on the method and setting. Binding seen in cells or lysates may run through a third protein. Some entries that bind do so weakly or less than the wild type.

By UniProt entry, the sequences of proteins in these tests, tags left out. Residues count along the entry.
UniProt P07766, residues 23-207: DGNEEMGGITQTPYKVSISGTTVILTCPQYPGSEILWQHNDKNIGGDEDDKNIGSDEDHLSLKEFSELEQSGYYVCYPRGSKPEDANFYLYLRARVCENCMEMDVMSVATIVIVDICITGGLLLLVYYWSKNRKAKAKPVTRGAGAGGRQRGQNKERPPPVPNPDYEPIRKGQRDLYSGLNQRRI

Target: T1, Oxysterol-binding protein (OSBP)-related protein 4, long variant (ORP4L) (human (endogenous in Jurkat)) (UniProt Q969R2)
T1 sequence: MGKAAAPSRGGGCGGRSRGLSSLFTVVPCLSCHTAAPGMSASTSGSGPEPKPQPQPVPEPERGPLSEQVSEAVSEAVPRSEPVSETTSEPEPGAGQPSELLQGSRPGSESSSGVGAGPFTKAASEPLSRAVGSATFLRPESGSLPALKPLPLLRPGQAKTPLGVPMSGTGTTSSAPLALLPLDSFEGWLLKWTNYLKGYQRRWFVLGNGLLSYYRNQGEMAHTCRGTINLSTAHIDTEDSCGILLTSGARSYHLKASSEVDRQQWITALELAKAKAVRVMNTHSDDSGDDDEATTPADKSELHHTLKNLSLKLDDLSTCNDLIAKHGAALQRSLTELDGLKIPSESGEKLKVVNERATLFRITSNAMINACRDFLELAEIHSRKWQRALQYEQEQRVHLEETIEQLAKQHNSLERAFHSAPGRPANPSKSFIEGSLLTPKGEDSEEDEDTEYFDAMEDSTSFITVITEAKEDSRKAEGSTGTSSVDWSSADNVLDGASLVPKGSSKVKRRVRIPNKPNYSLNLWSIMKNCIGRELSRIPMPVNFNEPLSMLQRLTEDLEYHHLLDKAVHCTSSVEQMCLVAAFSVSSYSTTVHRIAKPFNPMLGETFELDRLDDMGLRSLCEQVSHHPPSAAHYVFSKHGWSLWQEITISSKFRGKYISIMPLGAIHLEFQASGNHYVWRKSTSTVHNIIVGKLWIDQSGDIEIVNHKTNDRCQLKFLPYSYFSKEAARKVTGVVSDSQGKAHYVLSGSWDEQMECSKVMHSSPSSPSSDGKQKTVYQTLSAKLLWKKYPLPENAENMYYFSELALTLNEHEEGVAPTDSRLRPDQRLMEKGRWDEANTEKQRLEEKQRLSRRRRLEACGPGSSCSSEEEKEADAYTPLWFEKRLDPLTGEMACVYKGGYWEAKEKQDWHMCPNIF
Experiment: co-IP; anti-ORP4L immunoprecipitates of Jurkat T-cell lysates, western blot for PLCβ3, Gαq/11 and CD3ɛ; cells without or with 10 μg/ml anti-CD3 for the indicated times

CD3ɛ (from UniProt P07766 23-207)
binding: binds

B1: PLCβ3 (enzyme, UniProt Q01970 1-1234)
chain: MAGAQPGVHALQLEPPTVVETLRRGSKFIKWDEETSSRNLVTLRVDPNGFFLYWTGPNMEVDTLDISSIRDTRTGRYARLPKDPKIREVLGFGGPDARLEEKLMTVVSGPDPVNTVFLNFMAVQDDTAKVWSEELFKLAMNILAQNASRNTFLRKAYTKLKLQVNQDGRIPVKNILKMFSADKKRVETALESCGLKFNRSESIRPDEFSLEIFERFLNKLCLRPDIDKILLEIGAKGKPYLTLEQLMDFINQKQRDPRLNEVLYPPLRPSQARLLIEKYEPNQQFLERDQMSMEGFSRYLGGEENGILPLEALDLSTDMTQPLSAYFINSSHNTYLTAGQLAGTSSVEMYRQALLWGCRCVELDVWKGRPPEEEPFITHGFTMTTEVPLRDVLEAIAETAFKTSPYPVILSFENHVDSAKQQAKMAEYCRSIFGDALLIEPLDKYPLAPGVPLPSPQDLMGRILVKNKKRHRPSAGGPDSAGRKRPLEQSNSALSESSAATEPSSPQLGSPSSDSCPGLSNGEEVGLEKPSLEPQKSLGDEGLNRGPYVLGPADREDEEEDEEEEEQTDPKKPTTDEGTASSEVNATEEMSTLVNYIEPVKFKSFEAARKRNKCFEMSSFVETKAMEQLTKSPMEFVEYNKQQLSRIYPKGTRVDSSNYMPQLFWNVGCQLVALNFQTLDVAMQLNAGVFEYNGRSGYLLKPEFMRRPDKSFDPFTEVIVDGIVANALRVKVISGQFLSDRKVGIYVEVDMFGLPVDTRRKYRTRTSQGNSFNPVWDEEPFDFPKVVLPTLASLRIAAFEEGGKFVGHRILPVSAIRSGYHYVCLRNEANQPLCLPALLIYTEASDYIPDDHQDYAEALINPIKHVSLMDQRARQLAALIGESEAQAGQETCQDTQSQQLGSQPSSNPTPSPLDASPRRPPGPTTSPASTSLSSPGQRDDLIASILSEVAPTPLDELRGHKALVKLRSRQERDLRELRKKHQRKAVTLTRRLLDGLAQAQAEGRCRLRPGALGGAADVEDTKEGEDEAKRYQEFQNRQVQSLLELREAQVDAEAQRRLEHLRQALQRLREVVLDANTTQFKRLKEMNEREKKELQKILDRKRHNSISEAKMRDKHKKEAELTEINRRHITESVNSIRRLEEAQKQRHDRLVAGQQQVLQQLAEEEPKLLAQLAQECQEQRARLPQEIRRSLLGEMPEGLGDGPLVACASNGHAPGSSGHLSGADSESQEENTQL
binding: binds
